64 molecules from PubChem BioAssay AID493014 (National Center for Advancing Translational Sciences (NCATS), 2011) can be followed below.

The other results are listed elsewhere or left out. The main result of the screen is listed elsewhere. These columns were measured beside it and carry no call. Compounds called inactive in the main read-out are mostly missing here. Words in brackets tell the shape of the fitted curve; partial curves, single points and poor fits give uncertain potencies.

What is called AC50 is the concentration giving half of the maximal activity seen.

The nature of this assay: qHTS Assay to Find Inhibitors of Chronic Active B-Cell Receptor Signaling. The note with it: ABC-DLBCL IkBa-CBG/CBR reporter, luminescence ratio (green luciferase fused to IkBa over red control in TMD8 lymphoma cells), 4 h. The gist of the method:
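TMD8 human ABC-DLBCL cells with doxycycline-inducible IκBα–green luciferase fusion and unfused red luciferase, in 0.5% FBS medium; compounds up to 46 uM, 4 h at 37C. Green/red luminescence ratio, filter-overlap corrected, fitted to concentration-response curves.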
(In qHTS, concentration-response curves come from the screen itself.)

Setting [1] is: measured here: CBR red luminescence, cell number.
Setting [2] is: measured here: IkBa-CBG green luminescence.

Turning to `O=C(COc1cccc(Cl)c1)N/N=C\c1cc2ccccc2nc1Cl`, the AC50 under setting [1] was 0.092 µM [rising, full curve, poor fit]. The same measure, in the same setting: the same measure for `Cc1cccc(-n2ncc3c(N4CCCC(C)C4)ncnc32)c1` (stereo not drawn): 35.5 µM [falling, single point]; for `O=C(NNC(=O)C1CC2CCC1C2)c1sc2ccccc2c1Cl` (stereo not drawn): 18.4 µM [falling, single point]; for `NC(=O)COc1ccc(Nc2nnc(-c3ccc(O)cc3)c3ccccc23)cc1`: 14.1 µM [falling, single point]. On the same count and under the same terms, then `Cn1c(=N)n(CC(=O)c2ccccc2)c2ccccc21`, with 10 µM [falling, partial curve]; and `Cc1nn(CC(=O)Nc2ccc(F)cc2)c(=O)c2ccccc12`, with 2.51 µM [falling, full curve]; and `Cn1nc(C(=O)Nc2nc3ccccc3[nH]2)ccc1=O`, with 15.8 µM [falling, partial curve].

For `COc1ccc(OC)c(C2=NOC(C(=O)NCc3ccco3)C2)c1` (stereo not drawn), the concentration at half-maximal activity (AC50) under setting [1] is 18.4 µM [falling, partial curve, poor fit]. Same read-out and setting: the same measure for `CCCOc1nc2c(c(=O)n(C)c(=O)n2C)n1CCC`: 3.16 µM [falling, single point]; for `Cc1ccc(NC(=O)CN(C)CC(=O)Nc2ccccc2-c2ccccc2)cc1`: 35.5 µM [falling, single point]. Same read-out and setting: the same measure for `CN1CCCC(CN2c3ccccc3Sc3ccccc32)C1` (stereo not drawn): 10 µM [falling, partial curve]; for `O=C(Cn1cc(C(F)(F)F)ccc1=O)N/N=C/c1ccccc1`: 2.24 µM [rising, partial curve, poor fit]; for `Cc1cccc(-n2nc3c(c2NC(=O)CCCl)CSC3)c1`: 5.62 µM [rising, single point].

As to `CCCN1C(=O)c2cc(C(=O)NCCc3cccc(C)c3)ccc2C1O` (stereo not drawn), the concentration at half-maximal activity (AC50) under setting [1] is 0.103 µM [rising, full curve, poor fit]. Take `O=C(NN=C1CCCC1)c1ccccc1OCc1ccc(Cl)cc1`: the AC50 under setting [1] was 25.1 µM [falling, single point].

For `O=C(Nc1ccc(Br)cc1)c1ccc(F)c(S(=O)(=O)N2CCc3ccccc32)c1`, the AC50 under setting [1] was 0.562 µM [falling, partial curve, poor fit]. Same read-out and setting: the same measure for `CCOC(=O)CSc1nc2sc3c(c2c(=O)n1-c1ccc(OCC)cc1)CCN(C)C3`: 0.112 µM [falling, full curve, poor fit]. The same measure, in the same setting: then `O=c1c2cnn(-c3ccccc3)c2ncn1Cc1ccccc1F`, with 3.26 µM [falling, partial curve, poor fit]; and `CCNc1ccc(C(=O)OCC(=O)NC(C)c2ccccc2)cc1[N+](=O)[O-]` (stereo not drawn), with 16.4 µM [rising, single point]. As to `COCCOc1ccc(C(F)(F)F)cc1NC(=O)COC(=O)Cc1c[nH]c2ccccc12`, under setting [1], the half-maximal activity concentration (AC50) was 1.16 µM [falling, partial curve, poor fit]. On the same count and under the same terms, then `CCOc1ccccc1NC(=O)N1CCC(NC(=O)c2cccc(C)c2)CC1`, with 15.8 µM [falling, partial curve, poor fit]; and `Cc1nc(C(=O)NNC(=O)c2ccc(Cl)cc2)cs1`, with 35.5 µM [falling, single point]. Same read-out and setting: the same measure for `COc1ccccc1CN1Cc2cccc3c2[C@@H](CC1=O)[C@H](O)[C@H](O)C3`: 32.6 µM [rising, single point].

Consider `O=C(/C(=C/O)N=Nc1ccccc1)c1cccs1`, for which the AC50 by setting is: under setting [1], 10 µM [rising, partial curve, poor fit]; under setting [2], 15.8 µM [falling, single point]. `Cn1cccc1C(=O)C(=O)Nc1ccc(Cl)cc1`: the AC50 under setting [1] was 10 µM [falling, partial curve, poor fit]. On the same count and under the same terms, then `CCNc1nc2c(c(=O)n(Cc3ccccc3)c(=O)n2C)n1Cc1ccccc1`, with 35.5 µM [falling, single point]; and `CCOC(=O)/C(C#N)=C1\SS/C(=C(/C#N)C(=O)OCC)S1`, with 35.5 µM [falling, single point]; and `O=C(O)CCCCCN1C(=O)/C(=C\c2ccc(-c3ccc(Cl)cc3)o2)SC1=S`, with 0.1 µM [falling, full curve, poor fit].

Take `Cn1c(=O)[nH]c(=O)c2c1nc(SCC(=O)Nc1ccccc1)n2Cc1ccccc1`: the concentration at half-maximal activity (AC50) under setting [1] was 23.1 µM [falling, partial curve]. On the same count and under the same terms, then `COc1ccccc1N=Cc1c(O)c2ccccc2oc1=O`, with 4.11 µM [falling, full curve, poor fit]. Turning to `N#Cc1ccc(OCc2noc(-c3ccsc3)n2)cc1`, the AC50 under setting [1] is 10 µM [rising, partial curve, poor fit].

Turning to `COc1ccc(-n2nc(C(=O)NCC(=O)N3CCC(C)CC3)c3ccccc3c2=O)cc1Cl`, the AC50 under setting [1] is 28.2 µM [falling, single point].

Take `Cc1nc(Nc2ccccc2F)c2oc3ccccc3c2n1`: the AC50 under setting [1] was 2.82 µM [falling, full curve]. Still for that read-out and setting: then `COc1ccccc1C1C([N+](=O)[O-])=CC([N+](=O)[O-])=CN1C` (stereo not drawn), with 23.1 µM [falling, single point]. On the same count and under the same terms, then `S=c1[nH]nc(-c2ccco2)n1-c1ccccc1Cl`, with 0.562 µM [rising, partial curve, poor fit]; and `CC(C)CCN(C(=O)Nc1ccccc1)C(C)c1cccs1` (stereo not drawn), with 6.51 µM [falling, single point]. As for `Cc1cccc(OCCCc2c(C)n[nH]c2C)c1`, the AC50 under setting [1] is 35.5 µM [falling, single point]. The same measure, in the same setting: then `[O-][n+]1ccccc1SC/C=C/c1ccccc1`, with 17.8 µM [rising, partial curve, poor fit]; and `NC(=S)N/N=C/c1cn(-c2ccccc2)nc1-c1cccnc1`, with 6.31 µM [falling, full curve, poor fit]; and `CCOC(=O)C1CCN(C(=O)/C=C/c2cccs2)CC1`, with 31.6 µM [falling, single point].

Turning to `O=C(Nn1c(C2CCCCC2)nc2ccccc2c1=O)c1ccc([N+](=O)[O-])cc1`, under setting [1], the AC50 was 3.26 µM [rising, partial curve, poor fit]. As to `CCn1c2ccccc2c2cc(/C=N/NC(=O)c3ccccc3C)ccc21`, under setting [1], the AC50 is 4.61 µM [falling, partial curve]. As for `O=C(CCCN1C(=O)S/C(=C\c2ccccc2)C1=O)NNC(=O)c1ccccc1O`, the concentration at half-maximal activity (AC50) under setting [1] was 0.708 µM [falling, full curve, poor fit]. Still for that read-out and setting: then `Cc1cccc(N=Nc2c(C)[nH]n(C(N)=S)c2=O)c1C`, with 0.447 µM [rising, partial curve, poor fit]. `COc1cc(/C=N/Nc2ccc(C(=O)O)cc2)cc(OC)c1OC`: the AC50 under setting [1] was 0.2 µM [falling, full curve]. Consider `Cc1cccc(Cc2cnc(N3C(=N)SC(C)C3=O)s2)c1` (stereo not drawn), for which the AC50 is 28.2 µM [rising, single point] under setting [1] and 22.4 µM [falling, single point] under setting [2]. Consider `O=C(N/N=C/c1ccc2cccnc2c1)c1nc2ccccc2c(=O)[nH]1`, for which, under setting [1], the AC50 is 1.12 µM [rising, partial curve, poor fit]. In the case of `C=CCOc1c(OC)cc(/C=N/Nc2cccc(C(=O)O)c2)c(Br)c1Br`, the AC50 reads like this: under setting [1], 0.92 µM [rising, full curve, poor fit]; under setting [2], 0.326 µM [falling, full curve, poor fit]. Turning to `Cc1csc(CNc2ncnc3ccc(-c4cccnc4)cc23)c1`, under setting [1], the AC50 was 4.61 µM [rising, partial curve, poor fit]. On the same count and under the same terms, then `CCCc1cc(=O)[nH]c(SCC(=O)N(C)CC(=O)Nc2ccc(C)cc2)n1`, with 35.5 µM [rising, single point]; and `COCCn1cc(C(=O)NCCCOC(C)C)c2c3ccccc3n(C)c2c1=O`, with 11.2 µM [rising, partial curve]; and `Cc1ccccc1C(=O)NC(=S)Nc1ccccc1C(F)(F)F`, with 6.31 µM [falling, single point]. For `OC1(c2ccccc2)Cc2cccc[n+]2C1c1ccccc1` (stereo not drawn), the AC50 under setting [1] is 11.2 µM [rising, partial curve, poor fit]. `O=c1[nH]c(C2CCCN(S(=O)(=O)c3ccc(F)cc3)C2)nc2c1nnn2Cc1ccc(F)cc1` (stereo not drawn): the AC50 under setting [1] is 6.31 µM [rising, partial curve, poor fit]. The same measure, in the same setting: the same measure for `COc1ccc(-c2cc3nc(C)cc(N)n3n2)cc1`: 7.08 µM [falling, full curve]. Consider `Cc1nc(SCC(=O)Nc2ccc(F)cc2)c2oc3ccccc3c2n1`, for which, under setting [1], the concentration at half-maximal activity (AC50) is 2.91 µM [falling, partial curve, poor fit].

For `Nc1cc([N+](=O)[O-])cc2oc(-c3ccccc3)cc12`, under setting [1], the half-maximal activity concentration (AC50) is 20 µM [rising, partial curve, poor fit]. With `COc1cc(CNc2ncnc3c2[nH]c2ccc(C)cc23)cc(OC)c1`, under setting [1], the AC50 was 22.4 µM [falling, single point]. The same measure, in the same setting: the same measure for `O=C1C=C(N2CCOCC2)C2(CCCCC2)O1`: 3.98 µM [falling, full curve, poor fit].

As for `Nc1[nH][nH]c(=O)c1N=Nc1cccc(Cl)c1`, the AC50 under setting [1] was 35.5 µM [falling, single point]. The same measure, in the same setting: then `Cc1ccc(Cl)c(NC(=O)COC(=O)c2ccccc2C(=O)c2ccc(Cl)c([N+](=O)[O-])c2)c1Cl`, with 8.2 µM [falling, partial curve]. Regarding `Cc1cc(Cl)n2c(nc3cc(F)c(F)cc32)c1C#N`, the concentration at half-maximal activity (AC50) was 35.5 µM [falling, single point] under setting [1] and 3.55 µM [falling, full curve, poor fit] under setting [2]. In the case of `Cc1ccc2c(C)c(C(=O)Nc3ccc(S(=O)(=O)Nc4onc(C)c4C)cc3)oc2c1`, the AC50 under setting [1] was 3.55 µM [falling, partial curve, poor fit]. The same measure, in the same setting: then `O=C(CNC(=O)c1cccc(F)c1)OCC(=O)N1CCN(C(=O)c2ccco2)CC1`, with 12.6 µM [rising, partial curve, poor fit].
